# These are yes or no findings as the source states them, for the method shown. Binding seen in cells or lysates may run through a third protein. Some results given as binding are weak or reduced against the parent protein; the word gives no strength. Sequences can lack the tags named with a protein.
# T1: leucyl-tRNA synthetase 2 with a hexa-histidine tag (LeuRS2-(His)6) (Arabidopsis thaliana) (UniProt F4I116)
# T1 sequence: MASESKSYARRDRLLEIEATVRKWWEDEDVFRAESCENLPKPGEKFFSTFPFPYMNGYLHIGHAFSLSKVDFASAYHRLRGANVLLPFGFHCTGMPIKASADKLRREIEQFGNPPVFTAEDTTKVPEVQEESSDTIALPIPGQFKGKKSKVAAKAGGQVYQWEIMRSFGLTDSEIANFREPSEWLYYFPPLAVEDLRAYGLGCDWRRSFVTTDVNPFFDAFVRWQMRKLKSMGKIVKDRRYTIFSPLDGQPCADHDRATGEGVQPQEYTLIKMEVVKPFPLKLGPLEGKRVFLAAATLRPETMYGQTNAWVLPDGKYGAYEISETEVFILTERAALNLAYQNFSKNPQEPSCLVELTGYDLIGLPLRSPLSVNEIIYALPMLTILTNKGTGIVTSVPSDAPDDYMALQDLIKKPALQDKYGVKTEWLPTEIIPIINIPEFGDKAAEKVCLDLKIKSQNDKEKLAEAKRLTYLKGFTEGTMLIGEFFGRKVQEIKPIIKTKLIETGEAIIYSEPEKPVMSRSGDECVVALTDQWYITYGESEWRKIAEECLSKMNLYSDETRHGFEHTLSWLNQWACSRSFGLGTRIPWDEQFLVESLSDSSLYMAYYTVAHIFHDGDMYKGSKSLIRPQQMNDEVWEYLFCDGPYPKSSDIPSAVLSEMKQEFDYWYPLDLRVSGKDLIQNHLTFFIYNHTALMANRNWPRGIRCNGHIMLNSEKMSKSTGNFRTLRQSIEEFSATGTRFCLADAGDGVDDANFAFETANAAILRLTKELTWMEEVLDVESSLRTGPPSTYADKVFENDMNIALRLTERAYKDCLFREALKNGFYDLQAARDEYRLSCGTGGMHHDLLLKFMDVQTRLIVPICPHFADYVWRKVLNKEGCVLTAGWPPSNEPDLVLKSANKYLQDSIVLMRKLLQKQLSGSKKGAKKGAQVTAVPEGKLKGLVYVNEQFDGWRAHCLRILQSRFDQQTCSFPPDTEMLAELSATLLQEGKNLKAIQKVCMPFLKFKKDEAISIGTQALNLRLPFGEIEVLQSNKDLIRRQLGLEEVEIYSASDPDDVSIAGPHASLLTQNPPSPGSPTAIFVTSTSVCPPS
# B1: HP30-2 (hypothetical protein of 30 kDa) (protein, UniProt Q9FLT9 1-259)
# chain: MGKDGEGDKKRETMAVMSLMKDQQNPIQQFQVKFKEIETGFKSWLSKQKLPVEAAVVTAMGGVQGAFIGGLMGTLSPEMPQAGIDPQAMASLKQTQALVGGPLVQARNFAAITGVNAGIACVMKRIRGKEDLESAVVAAFGSGVAYSLVSAGLQGQPMNAITTAAGFAVFQGVFFKLGERFSKPSVEDPYYTRGRSMLLKLGLEKYEKNFKKGLLADPTLPLLTDSALRDVSIPPGPRLLILDHIQRDPELKGKRGSRG
# B2: TIM10 (protein, UniProt Q9ZW33 1-83)
# chain: MASPIPVGVTKEQAFSMAQTEMEYRVELFNKLAQTCFNKCVDKRYKEAELNMGENSCIDRCVSKYWQVNGMVGQLLSAGKPPV
# B3: TIM9 (protein, UniProt Q9XGX9 1-93)
# chain: MDASMMAGLDGLPEEDKAKMASMIDQLQLRDSLRMYNSLVERCFVDCVDSFTRKSLQKQEETCVMRCAEKFLKHTMRVGMRFAELNQNAPTQD
# B4: TIM8 (protein, UniProt Q9XGY4 1-77)
# chain: MDPSMANNPELLQFLAQEKERAMVNEMVSKMTSVCWDKCITSAPGSKFSSSESSCLTHCAQRYMDMSMIIMKRFNSQ
# What was measured:
# [1] = biological target: T1, leucyl-tRNA synthetase 2 with a hexa-histidine tag (LeuRS2-(His)6) (Arabidopsis thaliana); assay: co-IP; co-immunoprecipitation from the DTNB crosslink product of LeuRS2-(His)6 (Figure S2); antibodies and conditions not shown; only the target purified
# [2] = biological target: T1, leucyl-tRNA synthetase 2 with a hexa-histidine tag (LeuRS2-(His)6) (Arabidopsis thaliana); assay: cross-linking; DTNB-activated LeuRS2-(His)6 cross-linked to mitochondrial proteins during import; affinity purification of crosslink products from SDS-dissociated OM–IM fractions; ≈160 kDa product cleaved with 2-mercaptoethanol; only the target purified
# [3] = biological target: T1, leucyl-tRNA synthetase 2 with a hexa-histidine tag (LeuRS2-(His)6) (Arabidopsis thaliana); assay: pull-down; His6-tagged precursor added to isolated Arabidopsis mitochondria, import at 8 °C to arrest translocation intermediates; mitochondria ruptured, OM–IM fraction from 20–38% sucrose gradient solubilised with maltoside; Ni-NTA agarose; co-purifying bands by SDS-PAGE, Coomassie or silver staining and protein sequencing; only the target purified
Binder,binding [1],binding [2],binding [3]
B1,binds,binds,binds
B2,,binds,binds
B3,,binds,binds
B4,,binds,binds
